Results as given in patent publication US20130142799A1.
These are yes or no findings as the source states them, for the method shown. Some binding calls cover weakened binding; strength is not graded here.

The chains behind the UniProt entries cited, without tags or fusion partners. Residues count along the entry.
UniProt O15123, residues 19-496: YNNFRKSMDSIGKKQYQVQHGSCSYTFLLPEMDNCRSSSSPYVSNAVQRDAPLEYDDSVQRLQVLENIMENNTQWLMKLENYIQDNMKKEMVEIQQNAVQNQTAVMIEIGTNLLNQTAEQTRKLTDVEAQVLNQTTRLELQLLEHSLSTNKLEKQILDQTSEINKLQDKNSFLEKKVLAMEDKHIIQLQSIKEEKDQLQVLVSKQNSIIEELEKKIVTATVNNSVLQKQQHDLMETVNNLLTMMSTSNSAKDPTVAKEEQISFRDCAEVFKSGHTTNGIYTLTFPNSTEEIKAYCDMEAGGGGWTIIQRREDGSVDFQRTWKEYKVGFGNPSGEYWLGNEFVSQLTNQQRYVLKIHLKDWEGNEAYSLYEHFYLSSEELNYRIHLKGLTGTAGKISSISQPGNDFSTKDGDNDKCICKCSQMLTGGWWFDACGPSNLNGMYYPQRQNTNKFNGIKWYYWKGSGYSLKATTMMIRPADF
UniProt Q02763, residues 23-748: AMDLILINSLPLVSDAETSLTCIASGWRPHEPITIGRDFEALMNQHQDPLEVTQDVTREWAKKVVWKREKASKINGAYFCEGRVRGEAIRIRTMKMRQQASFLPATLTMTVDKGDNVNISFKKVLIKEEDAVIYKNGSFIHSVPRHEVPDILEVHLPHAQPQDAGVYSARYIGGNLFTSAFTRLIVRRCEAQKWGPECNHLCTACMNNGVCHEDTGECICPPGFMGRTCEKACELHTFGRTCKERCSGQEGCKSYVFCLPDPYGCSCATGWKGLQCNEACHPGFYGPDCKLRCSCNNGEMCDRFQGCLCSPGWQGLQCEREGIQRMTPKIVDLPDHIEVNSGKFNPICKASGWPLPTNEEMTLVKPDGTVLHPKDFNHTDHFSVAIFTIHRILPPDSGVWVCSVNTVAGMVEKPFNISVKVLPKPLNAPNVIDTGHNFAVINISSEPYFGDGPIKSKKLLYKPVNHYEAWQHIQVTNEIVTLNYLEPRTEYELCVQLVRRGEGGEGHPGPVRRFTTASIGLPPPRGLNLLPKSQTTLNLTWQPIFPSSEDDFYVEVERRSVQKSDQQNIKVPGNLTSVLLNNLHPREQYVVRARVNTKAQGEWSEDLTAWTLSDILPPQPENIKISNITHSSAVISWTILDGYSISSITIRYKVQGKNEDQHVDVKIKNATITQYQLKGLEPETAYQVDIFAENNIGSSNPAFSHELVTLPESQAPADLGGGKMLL

Target: human angiopoietin-2 (human) (UniProt O15123)
Assay: ELISA at one concentration: plate coated with conditioned medium of 293T cells expressing full-length hAng-2 (aa 1-495, C-terminal 6xHis); binder at 1 µg/ml; HRP anti-human or anti-mouse IgG; O.D. 370; control pCDNA3 vector medium

binding: binds
Substance: Tie2-Fc (from UniProt Q02763 23-748) (Fc fusion)
